# “And” between values parts separate entries of the source, which are not always exact repeats. Identical values can stand only once. The inconclusive results got no clear call from the source; some entries with a clear call stand among them for comparison. Where the call is inconclusive, the potency comes from a doubtful curve fit. The source made the active and inactive calls. Unless noted, calls follow the shape of the full dose curve.
# Amino acid sequences for entries named in this document (tags omitted). A change or cut given only in a name is not applied to a line headed by its entry.
# UniProt P14416, whole entry, looked up: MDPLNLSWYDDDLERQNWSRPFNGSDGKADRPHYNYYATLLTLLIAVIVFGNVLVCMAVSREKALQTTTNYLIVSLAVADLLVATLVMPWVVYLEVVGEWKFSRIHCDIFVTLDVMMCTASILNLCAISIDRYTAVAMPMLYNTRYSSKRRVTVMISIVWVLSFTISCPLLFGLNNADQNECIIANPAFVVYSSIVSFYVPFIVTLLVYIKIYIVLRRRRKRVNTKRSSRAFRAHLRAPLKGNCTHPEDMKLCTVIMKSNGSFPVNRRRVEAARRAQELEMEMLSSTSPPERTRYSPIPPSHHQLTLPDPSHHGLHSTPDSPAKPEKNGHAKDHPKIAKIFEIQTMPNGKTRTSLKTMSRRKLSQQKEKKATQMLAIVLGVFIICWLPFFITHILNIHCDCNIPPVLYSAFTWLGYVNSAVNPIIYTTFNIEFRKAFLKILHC
# UniProt P28223, whole entry, looked up: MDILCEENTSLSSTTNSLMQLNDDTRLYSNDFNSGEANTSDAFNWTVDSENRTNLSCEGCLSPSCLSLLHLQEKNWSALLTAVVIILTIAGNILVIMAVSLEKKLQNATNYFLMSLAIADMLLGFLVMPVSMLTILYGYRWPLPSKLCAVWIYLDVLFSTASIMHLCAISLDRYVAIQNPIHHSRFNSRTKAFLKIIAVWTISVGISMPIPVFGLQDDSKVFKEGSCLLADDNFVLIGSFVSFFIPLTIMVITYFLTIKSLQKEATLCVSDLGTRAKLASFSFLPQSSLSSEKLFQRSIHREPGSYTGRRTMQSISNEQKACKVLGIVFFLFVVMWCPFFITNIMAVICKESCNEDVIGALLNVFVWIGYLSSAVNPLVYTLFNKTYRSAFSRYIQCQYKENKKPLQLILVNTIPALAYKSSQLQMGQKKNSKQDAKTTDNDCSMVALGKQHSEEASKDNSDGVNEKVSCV
# UniProt P11229: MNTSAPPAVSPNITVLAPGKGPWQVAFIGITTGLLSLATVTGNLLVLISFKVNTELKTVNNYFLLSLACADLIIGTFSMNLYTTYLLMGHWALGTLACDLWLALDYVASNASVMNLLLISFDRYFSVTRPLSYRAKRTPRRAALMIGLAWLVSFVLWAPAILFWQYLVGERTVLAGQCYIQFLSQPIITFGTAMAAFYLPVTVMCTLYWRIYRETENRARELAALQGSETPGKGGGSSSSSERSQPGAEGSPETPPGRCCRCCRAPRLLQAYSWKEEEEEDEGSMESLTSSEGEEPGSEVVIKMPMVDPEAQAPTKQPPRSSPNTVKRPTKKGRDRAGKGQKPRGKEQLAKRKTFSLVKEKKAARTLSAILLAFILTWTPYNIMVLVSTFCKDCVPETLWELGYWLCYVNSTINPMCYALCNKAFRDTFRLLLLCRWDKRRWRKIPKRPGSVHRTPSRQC
# Legend:
# [1] = Nuclear factor erythroid 2-related factor 2/antioxidant responsive element (Nrf2/ARE) small molecule agonists: luciferase reporter gene qHTS assay in human keratinocytes (AID 1919969); settings: KeratinoSens HaCaT ARE-luciferase, luminescence, 24 h; activity, positive = activation: at 92.4 µM (top of the series); also: nearly all actives have a fitted effect of over 35% in size
# [2] = p53 small molecule agonists, cell-based qHTS assay (AID 1963582; active = well fitted activation curve with a large enough effect in the signal ratio in the repeat runs, not every such curve was filed as active; inconclusive = weak or mixed curves; the % refers to the signal ratio; as to activation: % is scaled to controls: 0 for no effect and ±100 for the full control effect); settings: HCT-116 p53RE-bla reporter, beta-lactamase FRET ratio, 16 h; activation: at 66 µM (top of the series) unless noted
# Procedure, shortened: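 Fluorescence intensity read-out of a beta-lactamase reporter under a p53 response element. Cells were exposed to DMSO-dissolved compounds for 16 h at 37 C, then developed with FRET substrate for 2 h at RT.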
# [3] = cAMP Responsive Elements (CRE) small molecule antagonists, cell-based qHTS assay (AID 1963591; active = well fitted inhibition curve with a large enough effect in the signal ratio in the repeat runs, not every such curve was filed as active; inconclusive = weak or mixed curves, or effect the other way; the % refers to the signal ratio; as to activity change, negative = inhibition: % is scaled to controls: 0 for no effect and ±100 for the full control effect); settings: CRE-bla HEK293T, beta-lactamase FRET ratio; activity change, negative = inhibition: at 92.4 µM (top of the series) unless noted
# Procedure, shortened: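 HEK293T CRE-bla; 18 h preincubation; compound pin-transfer; NKH477 0.25 uM final, 3 h, 37 C; LiveBLAzer FRET substrate 2 h RT.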
# [4] = target: Beta-2 adrenergic receptor (Homo sapiens) (UniProt P07550); test: Adrenergic beta2 receptor (ADRB2) small molecule agonists, cell-based qHTS assay (AID 1963593); settings: CHO-ADRB2 cells, cAMP HTRF, 30 min; activation: at 92.4 µM (top of the series) unless noted;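 as to activation: CHO cells stably overexpressing human ADRB2; % is scaled to controls: 0 for no effect and ±100 for the full control effect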
# Procedure, shortened: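 CHO cells stably over-expressing ADRB2 were plated overnight at 37C, then dosed with compounds plus a stimulation mix containing 100uM IBMX and 25uM Ro-20-1724 for 0.5hr at room temperature. cAMP was measured by HTRF competition, 1hr.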
# [5] = target: D(2) dopamine receptor (Homo sapiens) (UniProt P14416); test: Dopamine D2 receptor (DRD2) small molecule agonists, cell-based qHTS assay (AID 1963594); settings: HEK293-DRD2 cAMP HTRF, agonist mode, 30 min; activation: at 92.4 µM (top of the series) unless noted; also: nearly all actives have a fitted effect of over 35% in size; as to activation: % is scaled to controls: 0 for no effect and ±100 for the full control effect
# Procedure, shortened: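 cAMP accumulation in DRD2-HEK293 cells measured by HTRF after 1 h detection; compounds added 10 min before NKH477 (200nM […]) forskolin-analogue stimulation, 30 min at room temperature, with Ro20-1724 present at 0.1 mM final.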
# [6] = target: 5-hydroxytryptamine receptor 2A (Homo sapiens) (UniProt P28223); test: 5-hydroxytryptamine receptor 2A (HTR2A) small molecule agonists, cell-based qHTS assay (AID 1963587); also: nearly all actives have a fitted effect of over 30% in size
# Procedure, shortened: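 Kinetic calcium-flux fluorescence (2 min, 1 sec intervals) after compound addition in agonist mode. HTR2A-CHO cells were cultured 18 h, then dye-loaded 1 h at 37 C.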
# [7] = target: Beta-2 adrenergic receptor (Homo sapiens) (UniProt P07550); test: Adrenergic beta2 receptor (ADRB2) small molecule antagonists, cell-based qHTS assay (AID 1963592); settings: CHO-ADRB2 cells, isoproterenol-stimulated cAMP HTRF ratio, 0.5 h; activity change, negative = inhibition: at 92.4 µM (top of the series) unless noted; also: nearly all actives have a fitted effect of over 50% in size
# Procedure, shortened: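 Assay format: CHO-ADRB2 cells, 18-20hr seeding at 37C/5% CO2, then compound plus 1nM isoproterenol agonist mix for 0.5hr RT. Homogeneous time-resolved fluorescence cAMP detection after 1hr, expressed as 665/615 nm ratio.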
# [8] = target: D(2) dopamine receptor (Homo sapiens) (UniProt P14416); test: Dopamine D2 receptor (DRD2) small molecule antagonists, cell-based qHTS assay (AID 1963595; active = well fitted inhibition curve with a large enough effect in the signal ratio in the repeat runs, with a control signal flat; inconclusive = weak or mixed curves, or effect the other way; the % refers to the signal ratio); settings: HEK293-DRD2 cAMP HTRF antagonist mode; activity change, negative = inhibition: at 92.4 µM (top of the series) unless noted
# Procedure, shortened: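 Antagonism was scored as restored cAMP in HEK293-DRD2 cells. These cells were stimulated with 200 nM NKH477 and 12 nM quinpirole for 30 min at room temperature, in the presence of 0.1 mM Ro20-1724.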
# [9] = cAMP Responsive Elements (CRE) small molecule agonists, cell-based qHTS assay (AID 1963590); settings: CRE-bla HEK293T, beta-lactamase FRET ratio, 3 h; activation: at 92.4 µM (top of the series) unless noted
# Procedure, shortened: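 Beta-lactamase reporter readout: LiveBLAzer B/G FRET substrate, 2 h at room temperature, added after 3 h compound treatment of CRE-bla HEK 293T cells at 37 C/5% CO2.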
# [10] = target: Muscarinic acetylcholine receptor M1 (Homo sapiens) (UniProt P11229); test: Cholinergic receptor muscarinic 1 (CHRM1) small molecule antagonists, cell-based qHTS assay (AID 1963588); also: nearly all actives have a fitted effect of over 40% in size
# Procedure, shortened: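 Compounds were tested at 15 concentrations in three independent runs. Dye-loaded CHRM1-CHO cells were exposed 5 min at room temperature before stimulation by acetylcholine added at 50nM. Intracellular calcium was read kinetically on FDSS for 3 min.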
# [11] = target: 5-hydroxytryptamine receptor 2A (Homo sapiens) (UniProt P28223); test: 5-hydroxytryptamine receptor 2A (HTR2A) small molecule antagonists, cell-based qHTS assay (AID 1963586); also: nearly all actives have a fitted effect of over 45% in size
# Procedure, shortened: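 CHO cells stably expressing human HTR2A were plated for 18 h at 37 C, then loaded with calcium dye for 1 h. Compounds were preincubated 5 min at room temperature before DOI (4 nM solution) was added. Kinetic fluorescence was read for 3 min.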
# Potency is read from the fitted curve at half-maximal effect.
smiles,measurement,setting,value
O=C(CS)OCCOC(=O)CS,Potency,[1],"inconclusive: 68.6 µM [activator, single point]"
same,Potency,[2],inactive
same,"activity change, negative = inhibition",[3],inconclusive: 27.5%
same,Potency,[4],inactive
Nc1ccc(C(=O)Nc2ccccc2N)cc1,Potency,[1],"inconclusive: 23.7 µM [activator, partial curve]"
same,Potency,[2],inactive
same,Potency,[3],"inconclusive: 13.3 µM [activator, partial curve]"
same,activation,[4],inconclusive: -6.48% [at 42.5 µM]
same,activation,[5],inconclusive: 33.3% [at 42.5 µM]
CCCCOc1ccc(N)cc1,Potency,[1],"inconclusive: 61.1 µM [activator, partial curve]"
same,Potency,[2],inactive
CSc1c(Cl)c(Cl)c(Cl)c(Cl)c1Cl,Potency,[1],"inconclusive: 68.2 µM [activator, single point]"
same,Potency,[2],inactive
same,Potency,[6],inactive
same,Potency,[4],inactive
CCCCCCCCCCCCCCCC/C=C/C1CC(=O)OC1=O (stereo not given),Potency,[1],inactive
same,Potency,[2],"inconclusive: 7.03 µM [rising, partial curve]"
same,"activity change, negative = inhibition",[7],inconclusive: 5.33% [at 42.5 µM]
same,activation,[4],inconclusive: -31.7% [at 42.5 µM]
Clc1cccc(Cl)n1,Potency,[1],"inconclusive: 61.1 µM [activator, single point]"
same,activation,[2],inconclusive: 17.9%
same,Potency,[3],inactive
same,Potency,[4],inactive
same,Potency,[8],inactive
C=CC(C)=CCC=C(C)C,Potency,[1],"inconclusive: 61.1 µM [activator, single point]"
same,Potency,[2],inactive
same,Potency,[3],inconclusive: 68.6 µM [activator]
CCN1/C(=C/C=C/c2sc3ccccc3[n+]2CC)Sc2ccccc21,Potency,[1],"inconclusive: 16.4 µM [activator, single point]"
same,Potency,[2],"inconclusive: 0.487 µM [rising, full curve]"
same,Potency,[6],"inconclusive: 0.522 µM [activator, full curve, poor fit]"
same,Potency,[9],"inconclusive: 0.0651 µM [rising, single point]"
same,Potency,[3],active: 11.6 µM
same,Potency,[7],active: 5.8 µM
same,Potency,[4],"inconclusive: 0.82 µM [inhibitor, full curve]"
same,Potency,[5],active: 14.6 µM
Cc1cc(-c2ccc(N=Nc3cc(S(=O)(=O)O)c4ccccc4c3N)c(C)c2)ccc1N=Nc1cc(S(=O)(=O)O)c2ccccc2c1N,Potency,[1],"inconclusive: 6.14 µM [activator, single point]"
same,Potency,[2],"inconclusive: 11.6 µM [rising, partial curve]"
same,Potency,[10],active: 7.52 µM
same,Potency,[9],"inconclusive: 15.4 µM [rising, full curve]"
same,Potency,[4],inactive
CCCCC(CC)CN1C(=O)C2C3C=CC(C3)C2C1=O (stereo not given),Potency,[1],active: 54.5 µM
same,Potency,[2],"inconclusive: 25.7 µM [rising, partial curve, poor fit]"
same,Potency,[10],"inconclusive: 14.9 µM [inhibitor, full curve]"
same,Potency,[9],"inconclusive: 68.6 µM [fluorescent, single point]"
same,Potency,[3],"inconclusive: 48.6 µM [rising, partial curve]"
O=C(c1ccc(O)cc1)c1ccc(O)c(O)c1O,Potency,[1],"inconclusive: 24.4 µM [activator, single point]"
same,Potency,[2],inactive
same,Potency,[11],"inconclusive: 16.8 µM [inhibitor, single point]"
same,Potency,[9],"inconclusive: 34.5 µM [rising, partial curve]"
same,"activity change, negative = inhibition",[3],inconclusive: 3.98%
same,Potency,[7],inconclusive: 68.9 µM
same,Potency,[4],inconclusive: 68.9 µM [single point]
same,Potency,[5],"inconclusive: 72 µM [falling, partial curve, poor fit]"
same,Potency,[8],"inconclusive: 48.8 µM [falling, partial curve, poor fit]"
C=CC(=O)OCCOCCOCCOCCOC(=O)C=C,Potency,[1],active: 24.5 µM and active: 27.1 µM
same,Potency,[2],"inconclusive: 3.65 µM [rising, full curve, poor fit]"
same,Potency,[9],"inconclusive: 24.5 µM [rising, partial curve] and inconclusive: 30.4 µM [rising, partial curve]"
same,"activity change, negative = inhibition",[7],inconclusive: -4.06%
same,activation,[4],inconclusive: 30.2% and inconclusive: 3.3%
O=C1OC(=O)c2c(Cl)c(Cl)c(Cl)c(Cl)c21,Potency,[1],"inconclusive: 1.23 µM [activator, single point]"
same,Potency,[2],inactive
same,Potency,[10],"inconclusive: 0.0151 µM [inhibitor, full curve, poor fit]"
same,activation,[4],inconclusive: 11.3%
same,Potency,[5],inactive
C/C=C/C(=O)OCC(C)C,Potency,[1],inactive
same,activation,[2],inconclusive: 12.3%
same,Potency,[6],inactive
same,Potency,[10],"inconclusive: 9.42 µM [inhibitor, single point]"
same,activation,[4],inconclusive: 7.75%

# From PubChem BioAssay (Tox21)
